From US20230235004A1
These are yes or no findings as the source states them, for the method shown. Binding can be weak; no strength is given.

Target: cyno MAdCAM protein (cyno)
Test: ELISA

| Binder | binding |
| --- | --- |
| MAdCAM antibody Table 1 clone 51 (scFv) scFv: EVQLLESGGGLVQPGGSLRLSCAASGFTFNNYGMNWVRQAPGKGLEWVSRINSDGSSTSYADSVKGRFTISRDNSKNTLYLQMNSLRAEDTAVYYCARGAYYYYYMDVWGQGTLVTVSSGGGGSGGGGSGGGGSGGGGSEIVMTQSPATLSVSPGERATLSCRASQSVSGSYLAWYQQKPGQAPRLLIYATSSRASGIPARFSGSGSGTEFTLTISSLQSEDFAVYYCQQYYSGLTFGQGTKVEIK | binds |
| MAdCAM antibody Table 1 clone 52 (scFv) scFv: EVQLLESGGGLVQPGGSLRLSCAASGFTFSNSDMNWVRQAPGKGLEWVAHIWNDGSQKYYADSVKGRFTISRDNSKNTLYLQMNSLRAEDTAVYYCARDRTDPGYSSAMDVWGQGTTVTVSSGGGGSGGGGSGGGGSGGGGSDIQMTQSPSSLSASVGDRVTITCRASQDIRNYLGWYQQKPGKAPKLLIYDASSLETGVPSRFSGSGSGTDFTLTISSLQPEDFATYYCQQATSLPLTFGGGTKVEIK | binds |
| MAdCAM antibody Table 1 clone 53 (scFv) scFv: QVQLVQSGAEVKKPGASVKVSCKASGYTFTSYDINWVRQAPGQGLEWMGWMNPNSGNTGYAQKFQGRVTMTRDTSTSTVYMELSSLRSEDTAVYYCAKDSDYSNLLWDYWGQGTLVTVSSGGGGSGGGGSGGGGSGGGGSDIQMTQSPSSLSASVGDRVTITCRASQDITNDLGWYQQKPGKAPKLLIYQASSLESGVPSRFSGSGSGTDFTLTISSLQPEDFATYYCQQSYTIPLTFGQGTKVEIK | binds |
| MAdCAM antibody Table 1 clone 54 (scFv) scFv: EVQLLESGGGLVQPGGSLRLSCAASGFTFGDYAMSWVRQAPGKGLEWVAVVSYDGTNKYYADSVKGRFTISRDNSKNTLYLQMNSLRAEDTAVYYCAKDICSSTSCYFDLWGRGTLVTVSSGGGGSGGGGSGGGGSGGGGSDIQMTQSPSSLSASVGDRVTITCRASQNINNYVNWYQQKPGKAPKLLIYDASNLETGVPSRFSGSGSGTDFTLTISSLQPEDFATYYCQQANSFPPTFGQGTRLEIK | binds |
| MAdCAM antibody Table 1 clone 55 (scFv) scFv: QVQLVQSGAEVKKPGASVKVSCKASGYTFTSYYMHWVRQAPGQGLEWMGIIDPSGGSTSYAQKFQGRVTMTRDTSTSTVYMELSSLRSEDTAVYYCAREEWSSGGVGYFDYWGQGTLVTVSSGGGGSGGGGSGGGGSGGGGSDIQMTQSPSSLSASVGDRVTITCRASQGISSYLAWYQQKPGKAPKLLIYATSSLQTGVPSRFSGSGSGTDFTLTISSLQPEDFATYYCQQTYSIPITFGQGTRLEIK | binds |
| MAdCAM antibody Table 1 clone 56 (scFv) scFv: EVQLLESGGGLVQPGGSLRLSCAASGFTFDDYAMHWVRQAPGKGLEWVSAISGGGEDTYYADSVKGRFTISRDNSKNTLYLQMNSLRAEDTAVYYCARDASYGGNYGMDVWGQGTTVTVSSGGGGSGGGGSGGGGSGGGGSDIQMTQSPSSLSASVGDRVTITCQASQDIRNYLNWYQQKPGKAPKLLIYKASSLESGVPSRFSGSGSGTDFTLTISSLQPEDFATYYCQQANSYPVTFGGGTKVEIK | binds |
| MAdCAM antibody Table 1 clone 57 (scFv) scFv: QVQLVQSGAEVKKPGASVKVSCKASGYTFTSYYMHWVRQAPGQGLEWMGIINPSGGSTSYAQKFQGRVTMTRDTSTSTVYMELSSLRSEDTAVYYCARDSVAGTGGRYYGMDVWGQGTLVTVSSGGGGSGGGGSGGGGSGGGGSDIQMTQSPSSLSASVGDRVTITCRASQGISNYFAWYQQKPGKAPKLLIYAASSLQGGVPSRFSGSGSGTDFTLTISSLQPEDFATYYCQQSYSLPYTFGQGTKLEIK | binds |
| MAdCAM antibody Table 1 clone 58 (scFv) scFv: QVQLVQSGAEVKKPGASVKVSCKASGYTFTGYYMHWVRQAPGQGLEWMGIINPSGGNTKYAQKFQGRVTMTRDTSTSTVYMELSSLRSEDTAVYYCTTADYYYYMDVWGKGTTVTVSSGGGGSGGGGSGGGGSGGGGSDIQMTQSPSSLSASVGDRVTITCRASQGISNYLAWYQQKPGKAPKLLIYAASSLQSGVPSRFSGSGSGTDFTLTISSLQPEDFATYYCQQYYSNADFGQGTKVEIK | binds |
| MAdCAM Antibody Table 2 clone 2 (antibody, V domains shown) VH: QVQLVQSGAEVKKPGASVKVSCKASGYPFIGYYLHWVRQAPGQGLEWMGIINPSGGSTSYAQKFQGRVTMTRDTSTSTVYMELSSLRSEDTAVYYCAREGRLSYGMDAWGQGTLVTVSS VL: DIQMTQSPSSLSASVGDRVTITCRASQSISSYLAWYQQKPGKAPKLLIYGASTLESGVPSRFSGSGSGTDFTLTISSLQPEDFATYYCQQTWGPPFTFGQGTKLEIK | binds |
| MAdCAM Antibody Table 2 clone 3 (antibody, V domains shown) VH: QVQLVQSGAEVKKPGASVKVSCKASGYPFIGQYLHWVRQAPGQGLEWMGIINPSGGSTSYAQKFQGRVTMTRDTSTSTVYMELSSLRSEDTAVYYCAREGRLSYGMDAWGQGTLVTVSS VL: DIQMTQSPSSLSASVGDRVTITCRASQSISSYLAWYQQKPGKAPKLLIYGASTLESGVPSRFSGSGSGTDFTLTISSLQPEDFATYYCQQTWGPPFTFGQGTKLEIK | binds |
| MAdCAM Antibody Table 2 clone 12 (antibody, V domains shown) VH: QVQLVQSGAEVKKPGASVKVSCKASGYTLTTWYMYWVRQAPGQGLEWMGWINPNRGATNYAQKFQGRVTMTRDTSTSTVYMELSSLRSEDTAVYYCAKGDLWGAMDVWGQGTLVTVSS VL: DIQMTQSPSSLSASVGDRVTITCRASDNIGSWLAWYQQKPGKAPKLLIYAASSLQSGVPSRFSGSGSGTDFTLTISSLQPEDFATYYCQQGYSTPPTFGQGTKVEIK | binds |
| MAdCAM Antibody Table 2 clone 34 (antibody, V domains shown) VH: QVQLVQSGAEVKKPGASVKVSCKASGYTFTGYYIHWVRQAPGQGLEWMGWMNPNSGNTGYAQKFQGRVTMTRDTSTSTVYMELSSLRSEDTAVYYCARDPGFLGYCSGGSCYDGWFDPWGQGTLVTVSS VL: DIQMTQSPSSLSASVGDRVTITCRASQSISSYLHWYQQKPGKAPKLLIYAASSLQSGVPSRFSGSGSGTDFTLTISSLQPEDFATYYCQQSYTAPYTFGQGTKLEIK | binds |
| MAdCAM Antibody Table 2 clone 39 (antibody, V domains shown) VH: QVQLVQSGAEVKKPGASVKVSCKASGYTFTSYYMHWVRQAPGQGLEWMAWMNPNSGNTGYAQKFQGRVTMTRDTSTSTVYMELSSLRSEDTAVYYCARDYDFWSGSLGYWGQGTLVTVSS VL: DIQMTQSPSSLSASVGDRVTITCRASQGISNYLAWYQQKPGKAPKLLIYAASSLQSGVPSRFSGSGSGTDFTLTISSLQPEDFATYYCQQSYSTPWTFGQGTKVEIK | binds |
| MAdCAM Antibody Table 2 clone 43 (antibody, V domains shown) VH: QVQLVQSGAEVKKPGASVKVSCKASGYTFTSYGISWVRQAPGQGLEWMGWMHPKSGDTGLTQKFQGRVTMTRDTSTSTVYMELSSLRSEDTAVYYCARDTPYYYYGMDVWGQGTTVTVSS VL: DIQMTQSPSSLSASVGDRVTITCRASQSISSWLAWYQQKPGKAPKLLIYAASSLQSGVPSRFSGSGSGTDFTLTISSLQPEDFATYYCQQSYSVPITFGQGTKVEIK | binds |
| MAdCAM Antibody Table 2 clone 46 (antibody, V domains shown) VH: EVQLLESGGGLVQPGGSLRLSCAASGFSFSSYTMNWVRQAPGKGLEWVSFITSSSRTIYYADSVKGRFTISRDNSKNTLYLQMNSLRAEDTAVYYCARDRRGDYGDSWYFDLWGRGTLVTVSS VL: EIVMTQSPATLSVSPGERATLSCRASQSVRNYLAWYQQKPGQAPRLLIYGASTRATGIPARFSGSGSGTEFTLTISSLQSEDFAVYYCQQYGSSPLTFGGGTKVEIK | binds |
| MAdCAM Antibody Table 2 clone 54 (antibody, V domains shown) VH: QVQLVQSGAEVKKPGSSVKVSCKASGGTLSRYGVSWVRQAPGQGLEWMGGIIPIFGTTNYAQKFQGRVTITADESTSTAYMELSSLRSEDTAVYYCARDRVYYDSSGYPTWYFDLWGRGTLVTVSS VL: EIVMTQSPATLSVSPGERATLSCRASQSVSSSYLAWYQQKPGQAPRLLIYGASTRATGIPARFSGSGSGTEFTLTISSLQSEDFAVYYCQQYGSSPITFGQGTKVEIK | binds |
| MAdCAM Antibody Table 2 clone 56 (antibody, V domains shown) VH: EVQLVESGGGLVKPGGSLRLSCAASGFTFSSYWMSWVRQAPGKGLEWVSAIGTGGGTYYAAPVKGRFTISRDDSKNTLYLQMNSLKTEDTAVYYCAREWLVPYYGMDVWGQGTTVTVSS VL: DIQMTQSPSSLSASVGDRVTITCRASQSISRWLAWYQQKPGKAPKLLIYGASNLQSGVPSRFSGSGSGTDFTLTISSLQPEDFATYYCQQSYSTPWTFGQGTKVEIK | binds |
| MAdCAM Antibody Table 2 clone 64 (antibody, V domains shown) VH: EVQLLESGGGLVQPGGSLRLSCAASGFTFSNSDMNWVRQAPGKGLEWVAHIWNDGSQKYYADSVKGRFTISRDNSKNTLYLQMNSLRAEDTAVYYCARDRTDPGYSSAMDVWGQGTTVTVSS VL: DIQMTQSPSSLSASVGDRVTITCRASQDIRNYLGWYQQKPGKAPKLLIYDASSLETGVPSRFSGSGSGTDFTLTISSLQPEDFATYYCQQATSLPLTFGGGTKVEIK | binds |
| MAdCAM Antibody Table 2 clone 66 (antibody, V domains shown) VH: QVQLVQSGAEVKKPGASVKVSCKASGYTFTGHYMHWVRQAPGQGLEWMGIINPSGGSTSYAQKFQGRVTMTRDTSTSTVYMELSSLRSEDTAVYYCARDGAWFGEEYYYGMDVWGQGTTVTVSS VL: DIQMTQSPSSLSASVGDRVTITCRASQGISNWLAWYQQKPGKAPKLLIYDASNLETGVPSRFSGSGSGTDFTLTISSLQPEDFATYYCQQYYSFPLYTFGQGTKVEIK | binds |
| MAdCAM Antibody Table 2 clone 69 (antibody, V domains shown) VH: QVQLVQSGAEVKKPGASVKVSCKASGYTFTSYYMHWVRQAPGQGLEWMGIIDPSGGSTSYAQKFQGRVTMTRDTSTSTVYMELSSLRSEDTAVYYCAREEWSSGGVGYFDYWGQGTLVTVSS VL: DIQMTQSPSSLSASVGDRVTITCRASQGISSYLAWYQQKPGKAPKLLIYATSSLQTGVPSRFSGSGSGTDFTLTISSLQPEDFATYYCQQTYSIPITFGQGTRLEIK | binds |
| MAdCAM antibody Table 1 clone 3 (scFv) scFv: QVQLVQSGAEVKKPGASVKVSCKASGYPFIGQYLHWVRQAPGQGLEWMGIINPSGGSTSYAQKFQGRVTMTRDTSTSTVYMELSSLRSEDTAVYYCAREGRLSYGMDAWGQGTLVTVSSGGGGSGGGGSGGGGSGGGGSDIQMTQSPSSLSASVGDRVTITCRASQSISSYLAWYQQKPGKAPKLLIYGASTLESGVPSRFSGSGSGTDFTLTISSLQPEDFATYYCQQTWGPPFTFGQGTKLEIK | binds |
